# Measurements as given in PubChem BioAssay AID1347076 (National Center for Advancing Translational Sciences (NCATS), 2019).
# About 13,000 (3.2%) of roughly 400,000 compounds were called active. The shares of active, inactive and inconclusive entries below differ from those in the screen. Calls follow the shape of the dose curve; as a rule, active = well fitted cell-killing curve with a large enough effect; inconclusive = small, poorly fitted or top-dose-only effect, or effect the other way; inactive = flat fitted curve, though single readings scatter. Potencies beside an inconclusive call are fits to weak or partial responses and may not hold up.
# Assay: qHTS assay for MDR1-selective chemotherapeutics: Primary screen using the drug-selected MDR subline cells KB-V1; also: nearly all actives have a fitted effect of over 60% in size
# Conditions: KB-V1 MDR cells viability, CellTiter-Glo, 72 h; activity change, negative = cytotoxicity: at 46.1 µM (top of the series)
# How it was run: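 Cells of the MDR subline KB-V1 are plated, dosed with compound at multiple concentrations, and incubated 72 h at 37 degrees C; CellTiter-Glo is then added and luminescence read after 10 min.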
# % is scaled to controls: 0 for no effect and ±100 for the full control effect; potency is read from the fitted curve at half-maximal effect.
Structure (SMILES),"activity change, negative = cytotoxicity",Potency
CC(=O)Nc1cc2nn(-c3ccccc3)nc2cc1Cl,inactive: 4.91%,–
CC1(C)Cc2c(C#N)c(N3CCN(C(=O)c4ccccc4)CC3)nc(Cc3ccccc3)c2CO1,–,active: 18.4 µM
Cc1cccc(OC(=O)NCCOC(=O)N(O)c2ccc(Cl)cc2)c1,–,"inconclusive: 23.1 µM [cytotoxic, single point]"
COc1ccc(OCCCCN(C)Cc2ccccc2)cc1,inactive: -2.03%,–
Cc1ccc(S(=O)(=O)C(C#N)=C2N(C)c3ccccc3N2C)cc1,–,"inconclusive: 8.2 µM [cytotoxic, partial curve]"
O=C(OCC(=O)N1CCCCC1)c1ccc2ccccc2n1,inactive: 5.02%,–
COc1ccc(CN(C)S(=O)(=O)c2nnc(NC(=O)c3cccc(OC)c3)s2)cc1,–,"inconclusive: 0.231 µM [rising, full curve, poor fit]"
Cc1ccc(C(=O)Nc2ccc(C(=O)O)cc2)cc1S(=O)(=O)NCc1ccccc1,inactive: 5.26%,–
CN(C)C(=O)CCSc1nnc(-c2ccncc2)o1,inactive: 4.69%,–
CCOC(=O)[C@]12CCC=C1N(Cc1ccc3c(c1)OCO3)C(=O)[C@H](CC(=O)NCC1CCCCC1)C2,–,"inconclusive: 2.91 µM [cytotoxic, full curve]"
CCC1C(=O)N(c2nc(C)cc(C)n2)N=C1C (stereo not drawn),–,"inconclusive: 29.1 µM [rising, single point]"
CCOC(=O)c1cc(NC(=O)c2cc(C)on2)cc(C(=O)OCC)c1,–,"inconclusive: 22.4 µM [cytotoxic, single point]"
O=C(C1=C[C@@H](c2ccc(C(F)(F)F)cc2)C[C@@H](OCc2ccc(CO)cc2)O1)N1CCN(Cc2ccc3c(c2)OCO3)CC1,–,"inconclusive: 23.1 µM [cytotoxic, partial curve, poor fit]"
CN(C)S(=O)(=O)c1ccc(C(=O)NCCC(=O)N2CCCC2)cc1,inactive: -6.91%,–
Cc1ccc(C2c3[nH]c4ccccc4c3C[C@H]3C(=O)N(c4ccccc4C(=O)N4CCC[C@H]4C(=O)O)C(=O)N23)cc1 (stereo partly drawn),–,"inconclusive: 13 µM [rising, single point]"
CCOc1ccc(/C=N/NC(=O)c2c(C)n(C)c3ccc(OC)cc23)cc1,–,active: 13 µM
COc1ccccc1C1C(C(N)=O)=C(C)Nc2nc(-c3ccc(Cl)cc3)nn21 (stereo not drawn),inconclusive: 85.8%,–
COc1cccc(Nc2nc3cc(C)ccc3nc2NS(=O)(=O)c2ccc(Cl)cc2)c1,–,active: 14.6 µM
O=C(Nc1ccc(Cl)cn1)c1ccccc1[N+](=O)[O-],–,"inconclusive: 29.1 µM [cytotoxic, single point]"
Cc1cc(O)c(C(C)C)cc1NS(=O)(=O)c1ccccc1,–,"inconclusive: 23.1 µM [cytotoxic, partial curve, poor fit]"
N/C(=N\NS(=O)(=O)c1ccc(Cl)cc1)c1ccccn1,–,"inconclusive: 9.2 µM [rising, partial curve, poor fit]"
O=C(Nc1nnc(COc2ccc(Cl)cc2)s1)c1ccc([N+](=O)[O-])cc1,–,"inconclusive: 10.3 µM [rising, partial curve, poor fit]"
Cn1c2ccccc2n2c(=O)cc(-c3ccccc3)c(C#N)c12,–,"inconclusive: 1.16 µM [cytotoxic, full curve]"

Structure (SMILES),"activity change, negative = cytotoxicity",Potency
C/C(=N/NC(=O)c1ccc(C)s1)c1cccc(NC(=O)c2ccoc2C)c1,inactive: -4.53%,–
CC1(C(=O)Nc2ccc(Cl)c(Cl)c2)CCN1C(=O)Cc1ccc(-c2ccccc2)cc1 (stereo not drawn),–,"inconclusive: 6.51 µM [cytotoxic, full curve, poor fit]"
Fc1ccc(NC(=S)N2CCc3ccccc32)cc1,inactive: 6.11%,–
COc1ccc(NC(=O)c2cc3cc(C)ccc3n2C)c(OC)c1,–,"inconclusive: 18.4 µM [cytotoxic, single point]"
O=C(Nc1ccc(Oc2c(F)c(F)c(F)c(F)c2F)cc1)OC1CCN2Cc3ccccc3N=C12 (stereo not drawn),–,"inconclusive: 29.1 µM [cytotoxic, partial curve, poor fit]"
CC(=O)Oc1ccccc1Cn1c(C)c(C(=O)N(C)Cc2ccc(F)cc2)sc1=O,–,active: 18.4 µM
Cc1nn(CCc2nn[nH]n2)c2nc(-c3ccc(Br)cc3)cc(C(F)(F)F)c12,–,"inconclusive: 29.1 µM [cytotoxic, single point]"
O=C(CSc1ncc(-c2ccc(F)cc2)[nH]1)NCc1ccco1,–,"inconclusive: 20.6 µM [cytotoxic, single point]"
COc1ccc(S(=O)(=O)NCc2ccccn2)cc1NC(=O)c1ccc(C)cc1,–,"inconclusive: 23.1 µM [cytotoxic, partial curve, poor fit]"
O=C1Nc2ccccc2N(O)N1c1ccc(S(=O)(=O)N2CCCCCC2)cc1,–,"inconclusive: 29.1 µM [rising, single point]"
CCN(CC(=O)NC1CCS(=O)(=O)C1)S(=O)(=O)c1c(C)c(C)cc(C)c1C (stereo not drawn),–,"inconclusive: 29.1 µM [cytotoxic, single point]"
COc1cc(C2CC(c3ccccc3)=NN2c2ccccc2)ccc1OCC(=O)O (stereo not drawn),–,"inconclusive: 29.1 µM [rising, single point]"
O=C(CSc1ccccc1Cl)N1CCC(c2nc3ccccc3s2)CC1,–,"inconclusive: 18.4 µM [cytotoxic, single point]"
COc1ccc(NC(=O)CN2C(=O)C(C)SC(C)C2=O)cc1 (stereo not drawn),–,"inconclusive: 18.4 µM [rising, partial curve, poor fit]"
CCON1C(=O)C(C)(C)N(OCC)C(=O)C1(C)C,–,"inconclusive: 29.1 µM [rising, single point]"
O=C1NC[C@H](CCCCN2C[C@H](Cc3ccccc3)N(CCc3ccc(O)cc3)C(=O)C2=O)N(CCc2ccc(O)cc2)C1=O,inactive: 1.59%,–
NC(=Nc1ccccc1)NC(=O)c1nc(Cl)c(N)nc1N,–,"inconclusive: 29.1 µM [cytotoxic, single point]"
Clc1ccc(C[n+]2csc3ccccc32)cc1,–,active: 23.1 µM
COc1cccc(CN2CCNC(=O)C2CC(=O)N2CCCCO2)c1OC (stereo not drawn),–,"inconclusive: 0.731 µM [rising, full curve, poor fit]"
COc1cc(Cl)c(C)cc1NC(=O)COC(=O)C1=COCCO1,–,"inconclusive: 29.1 µM [rising, single point]"
COc1cc([N+](=O)[O-])ccc1NC(=S)NNC(=O)CCC(=O)Nc1ccccc1Cl,inactive: 0%,–
O=C(C1CCCC1)N1CCC(CO)(Cc2ccccc2Cl)CC1,–,"inconclusive: 20.6 µM [cytotoxic, partial curve]"
Fc1cnc(N2CCN(c3ccccc3)CC2)nc1N1CCN(c2ccccc2)CC1,–,"inconclusive: 8.2 µM [cytotoxic, partial curve]"

Structure (SMILES),"activity change, negative = cytotoxicity",Potency
Cc1ccnc(NC(=O)c2ccc(S(=O)(=O)N3CCCC3)cc2)c1,–,"inconclusive: 20.6 µM [cytotoxic, single point]"
NS(=O)(=O)c1ccc(NC(=O)COC(=O)C2(c3ccccc3F)CCCC2)cc1,–,"inconclusive: 11.6 µM [cytotoxic, partial curve, poor fit]"
O=C(NCc1ccco1)/C(=C/c1ccc(F)cc1)NC(=O)c1ccccc1,–,"inconclusive: 20.6 µM [cytotoxic, single point]"
CCc1ccc(OCC(=O)Nc2ccc3c(c2)c2ccccc2n3CC)cc1,inactive: -0.814%,–
CCOc1ccc(S(=O)(=O)N(CC(=O)N2CCC(C(N)=O)CC2)c2ccc(F)cc2)cc1,inactive: -2.69%,–
CCc1cc(=O)oc2c3c(cc(OCC(=O)NCCCC(=O)O)c12)OC(C)(C)CC3,–,"inconclusive: 29.1 µM [rising, single point]"
CN1CCN(CCCCOc2ccccc2-c2ccccc2)CC1,inactive: 9.51%,–
COc1ccc(Nc2nc(-c3sc(C)nc3C)cs2)c(OC)c1,–,"inconclusive: 2.91 µM [cytotoxic, partial curve]"
O=C(NNC(=O)c1cccc(S(=O)(=O)N2CCc3ccccc32)c1)c1ccccc1,–,"inconclusive: 8.2 µM [cytotoxic, partial curve, poor fit]"
CCc1ccccc1N(C(=O)c1ccco1)C(C(=O)NC1CCCC1)c1cccnc1 (stereo not drawn),inactive: -1.41%,–
Cc1cc(C)c2c(N)c(C(=O)Nc3ccccc3F)sc2n1,inactive: 0%,–
Cc1ccc(SCc2ccc(C(=O)N3CCCC3)cc2)cc1,–,"inconclusive: 14.6 µM [cytotoxic, partial curve]"
Cc1ccc(C(=O)C2CCN(CC(=O)Nc3ccc4c(c3)OCCO4)CC2)cc1,–,active: 11.6 µM
O=C(CCN1CCN(C(=O)c2ccccc2)CC1)c1ccc(Br)cc1,–,"inconclusive: 25.9 µM [rising, single point]"
CCN(CC)c1ccc(C2=NNC(=O)CC2C)cc1[N+](=O)[O-] (stereo not drawn),–,"inconclusive: 0.0058 µM [cytotoxic, full curve, poor fit]"
CCCOc1ccc(C(=O)NNC(=S)NC(=O)c2ccccc2[N+](=O)[O-])cc1,–,"inconclusive: 7.31 µM [cytotoxic, partial curve]"
COc1cc2c(cc1OC)C(c1c(Cl)cccc1Cl)=NCC2,–,"inconclusive: 7.31 µM [cytotoxic, partial curve]"
CC(C)(C)NC(=O)C1C(c2ccc(C(F)(F)F)cc2)=Nc2ccccc2N1C(=O)c1cccc(C(F)(F)F)c1 (stereo not drawn),–,"inconclusive: 18.4 µM [cytotoxic, partial curve, poor fit]"
CCOC(=O)C1(C)CCN1C(=O)c1ccc(C(C)(C)C)cc1 (stereo not drawn),inactive: 0.41%,–
CCOc1ccc(-c2c(C#N)c(N)nc3sc(C(=O)c4ccccc4)c(N)c23)cc1,inactive: -14.5%,–
COc1cccc(/C=C2\CCCCC2=O)c1,–,"inconclusive: 32.6 µM [cytotoxic, single point]"
CC1CCCCN1Cc1c(O)ccc2c(=O)c(-c3ccc(Cl)cc3Cl)coc12 (stereo not drawn),–,"inconclusive: 29.1 µM [rising, single point]"
